# No constants are given. Whether binding was seen depends on the method and setting. In cells and extracts the contact can be indirect. Some results given as binding are weak or reduced against the parent protein; the word gives no strength.
# Sequences of proteins named here, by UniProt entry; tags and fusion partners are left off.
# UniProt Q13620: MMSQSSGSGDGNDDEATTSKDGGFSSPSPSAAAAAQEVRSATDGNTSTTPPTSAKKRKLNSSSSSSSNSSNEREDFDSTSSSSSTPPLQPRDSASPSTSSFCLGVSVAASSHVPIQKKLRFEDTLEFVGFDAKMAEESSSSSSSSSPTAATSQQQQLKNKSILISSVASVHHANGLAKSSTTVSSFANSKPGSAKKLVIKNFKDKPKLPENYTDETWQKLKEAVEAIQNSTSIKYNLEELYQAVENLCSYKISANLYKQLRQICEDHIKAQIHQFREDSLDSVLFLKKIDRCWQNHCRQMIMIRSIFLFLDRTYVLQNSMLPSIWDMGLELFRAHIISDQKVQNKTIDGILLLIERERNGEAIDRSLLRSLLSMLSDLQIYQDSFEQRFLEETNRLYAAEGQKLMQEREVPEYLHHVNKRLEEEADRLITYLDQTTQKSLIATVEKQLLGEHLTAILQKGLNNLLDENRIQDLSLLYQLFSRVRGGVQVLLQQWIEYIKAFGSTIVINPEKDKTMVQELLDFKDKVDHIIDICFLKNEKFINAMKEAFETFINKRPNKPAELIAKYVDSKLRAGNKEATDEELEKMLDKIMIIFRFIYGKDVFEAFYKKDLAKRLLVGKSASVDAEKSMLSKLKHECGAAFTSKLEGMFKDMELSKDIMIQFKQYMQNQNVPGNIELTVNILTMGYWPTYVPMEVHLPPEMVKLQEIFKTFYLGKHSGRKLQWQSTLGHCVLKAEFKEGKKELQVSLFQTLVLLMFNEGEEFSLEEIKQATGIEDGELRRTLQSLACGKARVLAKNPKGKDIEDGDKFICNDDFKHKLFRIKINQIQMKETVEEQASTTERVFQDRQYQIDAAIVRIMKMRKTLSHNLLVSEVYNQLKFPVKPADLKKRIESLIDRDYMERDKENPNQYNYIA
# UniProt Q96BD5: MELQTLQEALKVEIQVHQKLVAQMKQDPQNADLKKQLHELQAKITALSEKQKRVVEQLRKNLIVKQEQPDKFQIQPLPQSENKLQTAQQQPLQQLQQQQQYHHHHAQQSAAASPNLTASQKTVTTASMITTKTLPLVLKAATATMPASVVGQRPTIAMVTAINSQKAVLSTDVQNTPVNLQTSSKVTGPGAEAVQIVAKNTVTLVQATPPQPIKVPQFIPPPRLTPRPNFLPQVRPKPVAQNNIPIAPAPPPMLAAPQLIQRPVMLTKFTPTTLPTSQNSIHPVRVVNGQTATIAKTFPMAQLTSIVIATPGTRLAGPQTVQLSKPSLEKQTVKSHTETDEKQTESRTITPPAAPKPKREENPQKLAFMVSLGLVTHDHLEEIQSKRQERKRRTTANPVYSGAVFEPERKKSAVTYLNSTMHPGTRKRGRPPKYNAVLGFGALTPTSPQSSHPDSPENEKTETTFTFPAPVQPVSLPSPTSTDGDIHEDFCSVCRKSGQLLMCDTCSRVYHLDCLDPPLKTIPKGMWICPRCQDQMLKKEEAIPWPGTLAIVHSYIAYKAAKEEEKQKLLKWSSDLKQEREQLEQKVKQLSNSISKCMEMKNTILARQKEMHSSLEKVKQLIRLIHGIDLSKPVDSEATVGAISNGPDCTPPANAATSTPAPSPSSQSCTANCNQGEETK
# UniProt Q13227: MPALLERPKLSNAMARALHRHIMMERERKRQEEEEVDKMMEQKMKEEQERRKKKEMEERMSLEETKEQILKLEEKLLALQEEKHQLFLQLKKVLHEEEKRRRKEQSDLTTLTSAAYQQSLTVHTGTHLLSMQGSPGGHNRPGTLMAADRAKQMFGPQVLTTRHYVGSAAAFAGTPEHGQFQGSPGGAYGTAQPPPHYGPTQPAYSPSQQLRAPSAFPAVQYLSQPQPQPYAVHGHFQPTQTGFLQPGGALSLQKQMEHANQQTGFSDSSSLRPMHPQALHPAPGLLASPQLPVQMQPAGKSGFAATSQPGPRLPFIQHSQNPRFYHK
# UniProt O95863: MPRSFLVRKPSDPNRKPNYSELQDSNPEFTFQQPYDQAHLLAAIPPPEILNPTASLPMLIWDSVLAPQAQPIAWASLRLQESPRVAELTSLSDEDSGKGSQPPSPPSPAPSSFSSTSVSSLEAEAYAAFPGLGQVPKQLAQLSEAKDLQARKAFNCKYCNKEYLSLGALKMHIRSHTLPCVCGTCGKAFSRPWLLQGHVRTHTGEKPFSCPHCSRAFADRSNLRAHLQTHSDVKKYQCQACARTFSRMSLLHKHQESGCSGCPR
# UniProt Q09028: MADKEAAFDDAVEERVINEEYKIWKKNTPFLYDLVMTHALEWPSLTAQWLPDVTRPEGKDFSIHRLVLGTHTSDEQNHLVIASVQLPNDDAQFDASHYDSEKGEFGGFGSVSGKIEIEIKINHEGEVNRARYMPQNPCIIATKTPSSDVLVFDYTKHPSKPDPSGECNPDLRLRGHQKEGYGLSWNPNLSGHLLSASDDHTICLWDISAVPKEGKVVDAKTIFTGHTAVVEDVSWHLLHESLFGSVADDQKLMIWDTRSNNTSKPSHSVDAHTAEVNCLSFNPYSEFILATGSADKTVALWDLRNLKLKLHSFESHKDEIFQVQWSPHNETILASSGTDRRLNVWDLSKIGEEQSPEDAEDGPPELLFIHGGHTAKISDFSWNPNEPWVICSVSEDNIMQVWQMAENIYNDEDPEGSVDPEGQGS
# UniProt Q9UKL0: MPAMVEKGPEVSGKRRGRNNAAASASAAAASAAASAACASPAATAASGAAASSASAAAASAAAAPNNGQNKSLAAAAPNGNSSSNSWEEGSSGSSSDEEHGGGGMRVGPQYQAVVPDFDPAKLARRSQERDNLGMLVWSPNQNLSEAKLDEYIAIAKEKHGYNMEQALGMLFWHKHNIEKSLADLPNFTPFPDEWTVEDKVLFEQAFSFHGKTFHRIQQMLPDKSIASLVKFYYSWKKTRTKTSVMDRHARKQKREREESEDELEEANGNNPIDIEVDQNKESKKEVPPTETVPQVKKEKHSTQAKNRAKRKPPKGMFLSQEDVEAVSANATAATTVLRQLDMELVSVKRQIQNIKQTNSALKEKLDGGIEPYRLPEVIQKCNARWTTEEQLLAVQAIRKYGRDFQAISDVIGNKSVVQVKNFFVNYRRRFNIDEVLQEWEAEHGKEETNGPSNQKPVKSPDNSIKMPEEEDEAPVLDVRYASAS
# UniProt O75376: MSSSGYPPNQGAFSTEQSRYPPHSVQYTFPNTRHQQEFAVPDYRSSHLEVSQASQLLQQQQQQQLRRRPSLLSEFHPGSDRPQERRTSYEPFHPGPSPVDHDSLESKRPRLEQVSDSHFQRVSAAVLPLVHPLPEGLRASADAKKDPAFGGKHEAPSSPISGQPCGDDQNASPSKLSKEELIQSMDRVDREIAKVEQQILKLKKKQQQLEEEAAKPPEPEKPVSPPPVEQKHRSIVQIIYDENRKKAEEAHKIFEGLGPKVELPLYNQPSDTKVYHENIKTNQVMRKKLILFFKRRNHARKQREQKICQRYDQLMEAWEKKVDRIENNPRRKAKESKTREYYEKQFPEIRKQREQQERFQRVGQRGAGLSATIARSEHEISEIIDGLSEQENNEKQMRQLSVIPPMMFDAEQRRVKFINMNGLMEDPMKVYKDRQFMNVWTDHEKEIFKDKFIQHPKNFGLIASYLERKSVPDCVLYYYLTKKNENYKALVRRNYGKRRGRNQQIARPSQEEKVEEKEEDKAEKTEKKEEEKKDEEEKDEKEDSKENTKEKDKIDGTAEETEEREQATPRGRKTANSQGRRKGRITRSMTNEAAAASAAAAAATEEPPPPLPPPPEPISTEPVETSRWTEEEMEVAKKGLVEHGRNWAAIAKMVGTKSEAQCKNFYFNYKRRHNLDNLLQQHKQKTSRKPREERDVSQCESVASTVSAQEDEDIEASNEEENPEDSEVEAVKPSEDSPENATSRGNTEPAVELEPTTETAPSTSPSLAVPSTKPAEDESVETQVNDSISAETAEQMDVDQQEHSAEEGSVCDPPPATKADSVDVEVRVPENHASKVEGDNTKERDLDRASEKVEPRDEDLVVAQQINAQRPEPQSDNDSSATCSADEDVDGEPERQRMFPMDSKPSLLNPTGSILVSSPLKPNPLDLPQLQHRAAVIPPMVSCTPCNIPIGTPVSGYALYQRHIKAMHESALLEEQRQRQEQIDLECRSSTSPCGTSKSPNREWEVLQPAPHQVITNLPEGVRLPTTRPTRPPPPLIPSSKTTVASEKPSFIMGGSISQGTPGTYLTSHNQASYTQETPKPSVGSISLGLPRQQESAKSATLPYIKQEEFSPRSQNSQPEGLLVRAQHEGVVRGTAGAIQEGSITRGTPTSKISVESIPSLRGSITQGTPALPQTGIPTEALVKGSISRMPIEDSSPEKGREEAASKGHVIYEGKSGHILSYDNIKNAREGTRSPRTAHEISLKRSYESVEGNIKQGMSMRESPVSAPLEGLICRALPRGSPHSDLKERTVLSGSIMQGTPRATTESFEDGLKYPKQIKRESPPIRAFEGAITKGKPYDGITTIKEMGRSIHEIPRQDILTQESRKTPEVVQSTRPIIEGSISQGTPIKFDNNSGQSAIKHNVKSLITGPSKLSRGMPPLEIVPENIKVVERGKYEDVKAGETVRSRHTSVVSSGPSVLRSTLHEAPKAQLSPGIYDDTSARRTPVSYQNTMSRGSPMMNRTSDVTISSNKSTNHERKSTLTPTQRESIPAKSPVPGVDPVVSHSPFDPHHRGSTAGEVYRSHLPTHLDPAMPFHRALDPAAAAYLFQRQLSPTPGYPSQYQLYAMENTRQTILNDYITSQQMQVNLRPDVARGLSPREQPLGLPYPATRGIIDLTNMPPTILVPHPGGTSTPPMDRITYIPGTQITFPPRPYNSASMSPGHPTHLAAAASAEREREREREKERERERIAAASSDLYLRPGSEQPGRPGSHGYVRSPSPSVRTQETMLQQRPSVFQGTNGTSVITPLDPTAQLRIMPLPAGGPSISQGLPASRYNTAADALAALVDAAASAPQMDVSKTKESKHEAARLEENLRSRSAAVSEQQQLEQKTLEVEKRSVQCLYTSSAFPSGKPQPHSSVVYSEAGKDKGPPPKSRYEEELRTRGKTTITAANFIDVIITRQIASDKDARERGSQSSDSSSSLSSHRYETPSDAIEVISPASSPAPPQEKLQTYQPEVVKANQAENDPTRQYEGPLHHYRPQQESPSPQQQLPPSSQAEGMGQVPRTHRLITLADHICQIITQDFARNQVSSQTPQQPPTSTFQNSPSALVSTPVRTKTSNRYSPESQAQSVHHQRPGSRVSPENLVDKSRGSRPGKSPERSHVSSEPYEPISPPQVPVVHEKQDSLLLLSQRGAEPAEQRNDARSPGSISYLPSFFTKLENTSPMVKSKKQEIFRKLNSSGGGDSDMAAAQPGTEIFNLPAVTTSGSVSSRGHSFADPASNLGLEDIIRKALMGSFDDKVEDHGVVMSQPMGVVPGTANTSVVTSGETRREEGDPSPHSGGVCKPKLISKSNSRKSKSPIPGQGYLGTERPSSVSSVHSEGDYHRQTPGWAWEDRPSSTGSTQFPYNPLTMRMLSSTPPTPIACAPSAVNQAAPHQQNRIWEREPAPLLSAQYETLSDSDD
# UniProt Q15672: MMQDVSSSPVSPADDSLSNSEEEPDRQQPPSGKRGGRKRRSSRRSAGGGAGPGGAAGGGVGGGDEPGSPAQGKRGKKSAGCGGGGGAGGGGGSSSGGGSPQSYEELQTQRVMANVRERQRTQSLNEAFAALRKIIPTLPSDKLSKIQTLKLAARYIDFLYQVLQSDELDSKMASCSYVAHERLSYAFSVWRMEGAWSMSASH
# Tests used:
# [1] = molecular target: CUL4B (endogenous) (human (endogenous in MCF-7, MDA-MB-231, HEK293T)) (UniProt Q13620); test: co-IP; endogenous proteins, MCF-7 whole-cell lysates (50 mM Tris-HCl pH 8.0, 150 mM NaCl, 0.5% NP40); IP with anti-CUL4B, anti-DDB1 or anti-ROC1, 12 h at 4 °C, immunoblot
# [2] = molecular target: CUL4B (endogenous) (human (endogenous in MCF-7, MDA-MB-231, HEK293T)) (UniProt Q13620); test: co-IP; endogenous proteins, MDA-MB-231 cells; IP with anti-CUL4B, immunoblot
# [3] = molecular target: CUL4B (endogenous) (human (endogenous in MCF-7, MDA-MB-231, HEK293T)) (UniProt Q13620); test: co-IP; endogenous proteins, MCF-7 whole-cell lysates (50 mM Tris-HCl pH 8.0, 150 mM NaCl, 0.5% NP40); IP with anti-CUL4B, anti-DDB1 or anti-ROC1, 12 h at 4 °C, immunoblot; remark: listed apart in the source
binding [1],binding [3],Molecule,further results
binds,–,BHC80 (endogenous) (from UniProt Q96BD5 1-680),–
binds,–,GPS2 (endogenous) (from UniProt Q13227 1-327),–
–,–,Snail (endogenous) (from UniProt O95863 1-264),binding [2]: binds
binds,–,RbAp48 (endogenous) (from UniProt Q09028 1-425),–
binds,–,CoREST (endogenous) (from UniProt Q9UKL0 1-485),–
binds,–,NCoR (endogenous) (from UniProt O75376 1-2440),–
binds,–,CTBP2 (endogenous) (from UniProt P56545 1-445),–
–,–,Twist (endogenous) (from UniProt Q15672 1-202),binding [2]: binds
–,binds,"SAP30 (endogenous) (protein, UniProt O75446 1-220) MNGFTPDEMSRGGDAAAAVAAVVAAAAAAASAGNGTGAGTGAEVPGAGAVSAAGPPGAAGPGPGQLCCLREDGERCGRAAGNASFSKRIQKSISQKKVKIELDKSARHLYICDYHKNLIQSVRNRRKRKGSDDDGGDSPVQDIDTPEVDLYQLQVNTLRRYKRHFKLPTRPGLNKAQLVEIVGCHFRSIPVNEKDTLTYFIYSVKNDKNKSDLKVDSGVH",–
–,–,"ZEB2 (endogenous) (protein, UniProt O60315 1-1214) MKQPIMADGPRCKRRKQANPRRKNVVNYDNVVDTGSETDEEDKLHIAEDDGIANPLDQETSPASVPNHESSPHVSQALLPREEEEDEIREGGVEHPWHNNEILQASVDGPEEMKEDYDTMGPEATIQTAINNGTVKNANCTSDFEEYFAKRKLEERDGHAVSIEEYLQRSDTAIIYPEAPEELSRLGTPEANGQEENDLPPGTPDAFAQLLTCPYCDRGYKRLTSLKEHIKYRHEKNEENFSCPLCSYTFAYRTQLERHMVTHKPGTDQHQMLTQGAGNRKFKCTECGKAFKYKHHLKEHLRIHSGEKPYECPNCKKRFSHSGSYSSHISSKKCIGLISVNGRMRNNIKTGSSPNSVSSSPTNSAITQLRNKLENGKPLSMSEQTGLLKIKTEPLDFNDYKVLMATHGFSGTSPFMNGGLGATSPLGVHPSAQSPMQHLGVGMEAPLLGFPTMNSNLSEVQKVLQIVDNTVSRQKMDCKAEEISKLKGYHMKDPCSQPEEQGVTSPNIPPVGLPVVSHNGATKSIIDYTLEKVNEAKACLQSLTTDSRRQISNIKKEKLRTLIDLVTDDKMIENHNISTPFSCQFCKESFPGPIPLHQHERYLCKMNEEIKAVLQPHENIVPNKAGVFVDNKALLLSSVLSEKGMTSPINPYKDHMSVLKAYYAMNMEPNSDELLKISIAVGLPQEFVKEWFEQRKVYQYSNSRSPSLERSSKPLAPNSNPPTKDSLLPRSPVKPMDSITSPSIAELHNSVTNCDPPLRLTKPSHFTNIKPVEKLDHSRSNTPSPLNLSSTSSKNSHSSSYTPNSFSSEELQAEPLDLSLPKQMKEPKSIIATKNKTKASSISLDHNSVSSSSENSDEPLNLTFIKKEFSNSNNLDNKSTNPVFSMNPFSAKPLYTALPPQSAFPPATFMPPVQTSIPGLRPYPGLDQMSFLPHMAYTYPTGAATFADMQQRRKYQRKQGFQGELLDGAQDYMSGLDDMTDSDSCLSRKKIKKTESGMYACDLCDKTFQKSSSLLRHKYEHTGKRPHQCQICKKAFKHKHHLIEHSRLHSGEKPYQCDKCGKRFSHSGSYSQHMNHRYSYCKREAEEREAAEREAREKGHLEPTELLMNRAYLQSITPQGYSDSEERESMPRDGESEKEHEKEGEDGYGKLGRQDGDEEFEEEEEESENKSMDTDPETIRDEEETGDHSMDDSSEDGKMETKSDHEEDNMEDGM",binding [2]: binds
–,binds,"SAP130 (endogenous) (protein, UniProt Q9H0E3 1-1048) MGPPRHPQAGEIEAGGAGGGRRLQVEMSSQQFPRLGAPSTGLSQAPSQIANSGSAGLINPAATVNDESGRDSEVSAREHMSSSSSLQSREEKQEPVVVRPYPQVQMLSTHHAVASATPVAVTAPPAHLTPAVPLSFSEGLMKPPPKPTMPSRPIAPAPPSTLSLPPKVPGQVTVTMESSIPQASAIPVATISGQQGHPSNLHHIMTTNVQMSIIRSNAPGPPLHIGASHLPRGAAAAAVMSSSKVTTVLRPTSQLPNAATAQPAVQHIIHQPIQSRPPVTTSNAIPPAVVATVSATRAQSPVITTTAAHATDSALSRPTLSIQHPPSAAISIQRPAQSRDVTTRITLPSHPALGTPKQQLHTMAQKTIFSTGTPVAAATVAPILATNTIPSATTAGSVSHTQAPTSTIVTMTVPSHSSHATAVTTSNIPVAKVVPQQITHTSPRIQPDYPAERSSLIPISGHRASPNPVAMETRSDNRPSVPVQFQYFLPTYPPSAYPLAAHTYTPITSSVSTIRQYPVSAQAPNSAITAQTGVGVASTVHLNPMQLMTVDASHARHIQGIQPAPISTQGIQPAPIGTPGIQPAPLGTQGIHSATPINTQGLQPAPMGTQQPQPEGKTSAVVLADGATIVANPISNPFSAAPAATTVVQTHSQSASTNAPAQGSSPRPSILRKKPATDGAKPKSEIHVSMATPVTVSMETVSNQNNDQPTIAVPPTAQQPPPTIPTMIAAASPPSQPAVALSTIPGAVPITPPITTIAAAPPPSVTVGGSLSSVLGPPVPEIKVKEEVEPMDIMRPVSAVPPLATNTVSPSLALLANNLSMPTSDLPPGASPRKKPRKQQHVISTEEGDMMETNSTDDEKSTAKSLLVKAEKRKSPPKEYIDEEGVRYVPVRPRPPITLLRHYRNPWKAAYHHFQRYSDVRVKEEKKAMLQEIANQKGVSCRAQGWKVHLCAAQLLQLTNLEHDVYERLTNLQEGIIPKKKAATDDDLHRINELIQGNMQRCKLVMDQISEARDSMLKVLDHKDRVLKLLNKNGTVKKVSKLKRKEKV",–
–,binds,"SAP180 (endogenous) (protein, UniProt Q4LE39 1-1312) MKALDEPPYLTVGTDVSAKYRGAFCEAKIKTAKRLVKVKVTFRHDSSTVEVQDDHIKGPLKVGAIVEVKNLDGAYQEAVINKLTDASWYTVVFDDGDEKTLRRSSLCLKGERHFAESETLDQLPLTNPEHFGTPVIGKKTNRGRRSNHIPEEESSSSSSDEDEDDRKQIDELLGKVVCVDYISLDKKKALWFPALVVCPDCSDEIAVKKDNILVRSFKDGKFTSVPRKDVHEITSDTAPKPDAVLKQAFEQALEFHKSRTIPANWKTELKEDSSSSEAEEEEEEEDDEKEKEDNSSEEEEEIEPFPEERENFLQQLYKFMEDRGTPINKRPVLGYRNLNLFKLFRLVHKLGGFDNIESGAVWKQVYQDLGIPVLNSAAGYNVKCAYKKYLYGFEEYCRSANIEFQMALPEKVVNKQCKECENVKEIKVKEENETEIKEIKMEEERNIIPREEKPIEDEIERKENIKPSLGSKKNLLESIPTHSDQEKEVNIKKPEDNENLDDKDDDTTRVDESLNIKVEAEEEKAKSGDETNKEEDEDDEEAEEEEEEEEEEEDEDDDDNNEEEEFECYPPGMKVQVRYGRGKNQKMYEASIKDSDVEGGEVLYLVHYCGWNVRYDEWIKADKIVRPADKNVPKIKHRKKIKNKLDKEKDKDEKYSPKNCKLRRLSKPPFQTNPSPEMVSKLDLTDAKNSDTAHIKSIEITSILNGLQASESSAEDSEQEDERGAQDMDNNGKEESKIDHLTNNRNDLISKEEQNSSSLLEENKVHADLVISKPVSKSPERLRKDIEVLSEDTDYEEDEVTKKRKDVKKDTTDKSSKPQIKRGKRRYCNTEECLKTGSPGKKEEKAKNKESLCMENSSNSSSDEDEEETKAKMTPTKKYNGLEEKRKSLRTTGFYSGFSEVAEKRIKLLNNSDERLQNSRAKDRKDVWSSIQGQWPKKTLKELFSDSDTEAAASPPHPAPEEGVAEESLQTVAEEESCSPSVELEKPPPVNVDSKPIEEKTVEVNDRKAEFPSSGSNSVLNTPPTTPESPSSVTVTEGSRQQSSVTVSEPLAPNQEEVRSIKSETDSTIEVDSVAGELQDLQSEGNSSPAGFDASVSSSSSNQPEPEHPEKACTGQKRVKDAQGGGSSSKKQKRSHKATVVNNKKKGKGTNSSDSEELSAGESITKSQPVKSVSTGMKSHSTKSPARTQSPGKCGKNGDKDPDLKEPSNRLPKVYKWSFQMSDLENMTSAERITILQEKLQEIRKHYLSLKSEVASIDRRRKRLKKKERESAATSSSSSSPSSSSITAAVMLTLAEPSMSSASQNGMSVECR",–
–,–,"Slug (endogenous) (protein, UniProt O43623 1-268) MPRSFLVKKHFNASKKPNYSELDTHTVIISPYLYESYSMPVIPQPEILSSGAYSPITVWTTAAPFHAQLPNGLSPLSGYSSSLGRVSPPPPSDTSSKDHSGSESPISDEEERLQSKLSDPHAIEAEKFQCNLCNKTYSTFSGLAKHKQLHCDAQSRKSFSCKYCDKEYVSLGALKMHIRTHTLPCVCKICGKAFSRPWLLQGHIRTHTGEKPFSCPHCNRAFADRSNLRAHLQTHSDVKKYQCKNCSKTFSRMSLLHKHEESGCCVAH",binding [2]: binds
–,binds,"REST (endogenous) (protein, UniProt Q13127 1-1097) MATQVMGQSSGGGGLFTSSGNIGMALPNDMYDLHDLSKAELAAPQLIMLANVALTGEVNGSCCDYLVGEERQMAELMPVGDNNFSDSEEGEGLEESADIKGEPHGLENMELRSLELSVVEPQPVFEASGAPDIYSSNKDLPPETPGAEDKGKSSKTKPFRCKPCQYEAESEEQFVHHIRVHSAKKFFVEESAEKQAKARESGSSTAEEGDFSKGPIRCDRCGYNTNRYDHYTAHLKHHTRAGDNERVYKCIICTYTTVSEYHWRKHLRNHFPRKVYTCGKCNYFSDRKNNYVQHVRTHTGERPYKCELCPYSSSQKTHLTRHMRTHSGEKPFKCDQCSYVASNQHEVTRHARQVHNGPKPLNCPHCDYKTADRSNFKKHVELHVNPRQFNCPVCDYAASKKCNLQYHFKSKHPTCPNKTMDVSKVKLKKTKKREADLPDNITNEKTEIEQTKIKGDVAGKKNEKSVKAEKRDVSKEKKPSNNVSVIQVTTRTRKSVTEVKEMDVHTGSNSEKFSKTKKSKRKLEVDSHSLHGPVNDEESSTKKKKKVESKSKNNSQEVPKGDSKVEENKKQNTCMKKSTKKKTLKNKSSKKSSKPPQKEPVEKGSAQMDPPQMGPAPTEAVQKGPVQVEPPPPMEHAQMEGAQIRPAPDEPVQMEVVQEGPAQKELLPPVEPAQMVGAQIVLAHMELPPPMETAQTEVAQMGPAPMEPAQMEVAQVESAPMQVVQKEPVQMELSPPMEVVQKEPVQIELSPPMEVVQKEPVKIELSPPIEVVQKEPVQMELSPPMGVVQKEPAQREPPPPREPPLHMEPISKKPPLRKDKKEKSNMQSERARKEQVLIEVGLVPVKDSWLLKESVSTEDLSPPSPPLPKENLREEASGDQKLLNTGEGNKEAPLQKVGAEEADESLPGLAANINESTHISSSGQNLNTPEGETLNGKHQTDSIVCEMKMDTDQNTRENLTGINSTVEEPVSPMLPPSAVEEREAVSKTALASPPATMAANESQEIDEDEGIHSHEGSDLSDNMSEGSDDSGLHGARPVPQESSRKNAKEALAVKAAKGDFVCIFCDRSFRKGKDYSKHLNRHLVNVYYLEEAAQGQE",–
–,binds,"SAP18 (endogenous) (protein, UniProt O00422 1-153) MAVESRVTQEEIKKEPEKPIDREKTCPLLLRVFTTNNGRHHRMDEFSRGNVPSSELQIYTWMDATLKELTSLVKEVYPEARKKGTHFNFAIVFTDVKRPGYRVKEIGSTMSGRKGTDDSMTLQSQKFQIGDYLDIAITPPNRAPPPSGRMRPY",–
